Inconclusive results, whose numbers are uncertain, are shown with a selection of clear calls. Where the call is inconclusive, the potency comes from a doubtful curve fit. Active and inactive are the calls of the source. Rule for the calls: active = hit-call score of the fitted dose curve at least 0.9, where 1 is the maximum; inconclusive = response in the unintended direction; inactive = score below 0.9.
system: rainbow trout Peroxisome Proliferator-activated Receptor alpha (PPARa), gene 110490141; assay: ATG_rtPPARa_EcoTox2: Attagene TRANS-FACTORIAL EcoTox-2 HepG2 Assay for rainbow trout Peroxisome Proliferator-activated Receptor alpha (PPARa)
Experimental: ATG_EcoTox2 is a cell-based, multiplexed assay created by modifying the existing Attagene TRANS-FACTORIAL system to include a panel of nuclear receptors from some or all the following species: human (Homo sapiens), african clawed frog (Xenopus laevis), rainbow trout (Oncorhynchus mykiss), japanese medaka (Oryzias latipes), and zebrafish (Danio rerio). The ECOTOX2-FACTORIAL format uses HepG2, a human liver cell line, with measurements taken at 24 hours after chemical dosing in a 24-well plate. ATG_rtPPARa_EcoTox2 is one of 29 assay components calculated in the ATG_EcoTox2 assay. It is designed to make measurements of mRNA induction, a form of inducible reporter, as detected with fluorescence intensity signals by Reverse transcription polymerase chain reaction (RT-PCR) and Capillary electrophoresis technology.The assay endpoint […] was analyzed in the positive analysis fitting direction relative to DMSO as the negative control and baseline of activity. Using a type of inducible reporter, measures of mRNA for gain-of-signal activity can be used to understand the reporter gene at the transcription factor-level as they relate to the gene PPARa. Furthermore, this assay endpoint can be referred to as a primary readout, because this assay has produced multiple assay endpoints where this one serves a reporter gene function. To generalize the intended target to other relatable targets, this assay endpoint is annotated to the nuclear receptor intended target family, where the subfamily is non-steroidal.
Human liver HepG2 cells are transiently transfected with multiple reporter transcription units (MRTUs) in 6-well plates using FuGene 6 reagent (Roche; 3 ml FuGene/1 mg DNA). The MRTU constructs are regulated by a cis-regulating element (promoter). Each RTU expresses a GAL4-UAS that regulates the transcription of a nearby target reporter gene sequence. A major difference between the CIS and TRANS system is that in CIS activities of endogenous TFs are measured, whereas the TRANS assay evaluates changes in activities of exogenous, chimeric NR-Gal4 proteins. […] At the end of 24 hour incubation, total RNA was isolated using TriZol reagent (Invitrogen). The isolated RNA is then reverse-transcribed using oligo(dT) primer and Mo-MLV reverse transcriptase (Invitrogen) with DNAse I (Ambion) treatment for 30 min. The one-tenth of the produced cDNA was amplified by PCR using Taq DNA polymerase (Invitrogen) and two reporter sequence-specific primers. […] The fragments were purified using Qiaquick PCR columns (Qiagen), analyzed on an ABI 3130xL genetic analyzer (Applied Biosystems) with peak positions identified by using a set of X-rhodamine (ROX)-labeled MapMarker1000 molecular weight standards (BioVentures). […]

Row | Compound | AC50 | outcome
1 | Cc1c(C)c2c(c(C)c1O)CCC(C)(COc1ccc(CC3SC(=O)NC3=O)cc1)O2 (centres undefined) | inconclusive: 16.6 µM | –
2 | CC(c1cc2ccccc2s1)N(O)C(N)=O (centres undefined) | – | inactive
3 | CC(C)(Oc1ccc(C2CC2(Cl)Cl)cc1)C(=O)O (centres undefined) | active: 75.3 µM | –
4 | C[C@]12C=CC(=O)C=C1CC[C@@H]1[C@@H]2C(=O)C[C@@]2(C)[C@H]1CC[C@]2(O)C(=O)CO | – | inactive

Source: PubChem BioAssay AID2284347 (EPA ToxCast)
